Where “and” joins values, the source holds several entries; their conditions need not be identical. Identical values can stand only once. Inconclusive means that the source gave no clear call. Such entries were picked first, then a sample of the others. A potency beside an inconclusive call is a rough fit, not a confirmed value. Calls of active or inactive are those of the source. Unless noted, the call rests on the fitted dose curve.
Experiments:
[1] = cAMP Responsive Elements (CRE) small molecule antagonists, cell-based qHTS assay (AID 1963591; active means well fitted inhibition curve with a large enough effect in the signal ratio in the repeat runs, not every such curve was filed as active; inconclusive means weak or mixed curves, or effect the other way; the % refers to the signal ratio); settings: CRE-bla HEK293T, beta-lactamase FRET ratio; activity change, negative = inhibition: at 92.4 µM (top of the series) unless noted
Procedure, shortened: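 HEK293T CRE-bla; 18 h preincubation; compound pin-transfer; NKH477 0.25 uM final, 3 h, 37 C; LiveBLAzer FRET substrate 2 h RT.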

[2] = molecular target: Beta-2 adrenergic receptor (Homo sapiens) (UniProt P07550); assay: Adrenergic beta2 receptor (ADRB2) small molecule agonists, cell-based qHTS assay (AID 1963593); settings: CHO-ADRB2 cells, cAMP HTRF, 30 min; activation: at 92.4 µM (top of the series) unless noted;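 on activation: CHO cells stably overexpressing human ADRB2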
Procedure, shortened: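 CHO cells stably over-expressing ADRB2 were plated overnight at 37C, then dosed with compounds plus a stimulation mix containing 100uM IBMX and 25uM Ro-20-1724 for 0.5hr at room temperature. cAMP was measured by HTRF competition, 1hr.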
On the % scale 0 is the no-effect control and ±100 the full control effect; potency means the concentration at half of the fitted maximal effect.

SMILES | activity change, negative = inhibition [1] | activation [2] | Potency [1] | Potency [2]
Nc1ncnc2c1ncn2[C@H]1CC[C@@H](CO)O1 | inconclusive: 26.1% | inconclusive: 18.5% |  | 
CO[Si](CCCNCCNCCN)(OC)OC |  | inconclusive: 2.58% | inactive | 
CN1CC(=O)NC1=N | inconclusive: 0.0615% [at 42.4 µM] | inconclusive: 13.4% [at 42.5 µM] |  | 
CC1=CCC2CC1C2(C)C (stereo unspecified) |  | inconclusive: -2.77% | inactive | 
Clc1cc(Cl)c(Cl)c(Cl)c1Cl |  |  | inactive | inactive
O=C1CCCCCCCCCCCN1 |  |  | inconclusive: 54.4 µM [inhibitor, partial curve, poor fit] | inconclusive: 68.5 µM [activator, single point]
O=C(OCCN1CCOCC1)c1cccnc1Nc1cccc(C(F)(F)F)c1 |  |  | inconclusive: 13.3 µM [activator] | inactive
OCC(CO)(CO)CO | inconclusive: -11.6% | inconclusive: -25.8% and inconclusive: -2.22% |  | 
CC1CCC(C(C)(C)O)CC1 (stereo unspecified) |  |  | inactive | inactive
CCOc1cc(N)c(Cl)cc1C(=O)NCC1CN(Cc2ccc(F)cc2)CCO1 (stereo unspecified) |  | inconclusive: -41.2% [at 42.5 µM] | inactive | 
COC(C)=O |  | inconclusive: 3.33% | inactive | 
C=CCCCCCCCCOC(C)=O |  | inconclusive: -17% | inactive | 
C1CCC2(CCCCO2)OC1 |  |  | inactive | inactive

From PubChem BioAssay (Tox21)
